This is one part of the list. Repeats are few or missing, and single values can be far off.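 Cells were imaged in 1,536-well plates, and nuclei stained with an antibody against cleaved PARP were counted against all DNA-stained nuclei to give the apoptosis fraction. Screening doses were chosen to leave most cells alive, and resting and induced cleaved-PARP levels differ strongly between cell lines.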

For the test, the system named is WM3526. Description: cleaved PARP positive nuclei fraction relative to DMSO control; melanoma cells; higher = more apoptosis. The settings on record: library dose: low library concentration; 72 h.
On to `NC1(c2ccc(-c3nc4ccn5c(=O)[nH]nc5c4cc3-c3ccccc3)cc2)CCC1` + O=C(Oc1ccc([N+](=O)[O-])cc1)N1CCC(C(O)(c2ccc3c(c2)OCO3)c2ccc3c(c2)OCO3)CC1 [JZL184] (first compound 0.4 µM, partner dose 1 µM), for which the “cleaved PARP positive nuclei fraction” value was determined as 89.7%.
The same measure for `COc1ccc(C2=N[C@@H](c3ccc(Cl)cc3)[C@@H](c3ccc(Cl)cc3)N2C(=O)N2CCNC(=O)C2)c(OC(C)C)c1` [Nutlin-3] + C/C(O)=C(\C#N)C(=O)Nc1cc(Br)ccc1Br [LFM-A13] (first compound 0.1 µM, partner dose 2 µM): 81.9%; for `O=C(/C=C/c1cccnc1)NCCCCC1CCN(C(=O)c2ccccc2)CC1` + Cc1cc(SCc2sc(-c3ccc(C(F)(F)F)c(F)c3)nc2C)ccc1OCC(=O)O [GW0742] (first compound 0.01 µM, partner dose 2 µM): 66.3%.
To `C[As](C)SC[C@H](NC(=O)CC[C@H](N)C(=O)O)C(=O)NCC(=O)O` [Darinaparsin] + NC(=O)Nc1cc(-c2cccc(F)c2)sc1C(=O)N[C@H]1CCCNC1 [AZD7762] (first compound 0.4 µM, partner dose 0.02 µM) belongs 61.7%.
Turning to `C[As](C)SC[C@H](NC(=O)CC[C@H](N)C(=O)O)C(=O)NCC(=O)O` [Darinaparsin] + C[C@@H]1CCN(C(=O)CC#N)C[C@@H]1N(C)c1ncnc2[nH]ccc12 [CP690550] (first compound 0.4 µM, partner dose 1 µM), the “cleaved PARP positive nuclei fraction” value came out at 59.8%.
To `C[C@]1(O)C[C@@H](c2nc(-c3ccc4ccc(-c5ccccc5)nc4c3)c3c(N)nccn32)C1` + C/C(O)=C(\C#N)C(=O)Nc1cc(Br)ccc1Br [LFM-A13] (first compound 0.4 µM, partner dose 2 µM) belongs 183%.
As for `N.N.[Cl][Pt][Cl]` [cisplatin] + Cc1cc([N+](=O)[O-])ccc1NS(=O)(=O)c1cc(Cl)ccc1Cl [FH535] (first compound 1.6 µM, partner dose 1 µM), the “cleaved PARP positive nuclei fraction” value came to 145%.
For the compound `Cn1cc(C2=C(c3cn(C4CCN(Cc5ccccn5)CC4)c4ccccc34)C(=O)NC2=O)c2ccccc21` [Enzastaurin] + O=C1NC(=O)/C(=C/c2ccc(-c3ccc(F)cc3O)o2)S1 [AS252424] (first compound 0.8 µM, partner dose 1 µM), the “cleaved PARP positive nuclei fraction” value was determined as 159%.
The same measure for `C=CCNC1=C2C[C@@H](C)C[C@H](OC)[C@H](O)[C@@H](C)/C=C(\C)[C@H](OC(N)=O)[C@@H](OC)/C=C\C=C(/C)C(=O)NC(=CC1=O)C2=O` [Tanespimycin] + Cc1cc(SCc2sc(-c3ccc(C(F)(F)F)c(F)c3)nc2C)ccc1OCC(=O)O [GW0742] (first compound 0.002 µM, partner dose 2 µM): 70.3%.
The same measure for `O=C(O)c1ccc2c(c1)nc(Nc1cccc(Cl)c1)c1ccncc12` + O=C(Oc1ccc([N+](=O)[O-])cc1)N1CCC(C(O)(c2ccc3c(c2)OCO3)c2ccc3c(c2)OCO3)CC1 [JZL184] (first compound 0.4 µM, partner dose 1 µM): 190%.
To `N.N.[Cl][Pt][Cl]` [cisplatin] + Cc1cc(N2CCOCC2)cc2[nH]c(-c3c(NC[C@@H](O)c4cccc(Cl)c4)cc[nH]c3=O)nc12 [BMS536924] (first compound 1.6 µM, partner dose 0.2 µM) belongs 63.8%.
For `CC1(C)CCC(c2ccc(Cl)cc2)=C(CN2CCN(c3ccc(C(=O)NS(=O)(=O)c4ccc(N[C@H](CCN5CCOCC5)CSc5ccccc5)c(S(=O)(=O)C(F)(F)F)c4)cc3)CC2)C1` + O=C(Oc1ccc([N+](=O)[O-])cc1)N1CCC(C(O)(c2ccc3c(c2)OCO3)c2ccc3c(c2)OCO3)CC1 [JZL184] (first compound 0.4 µM, partner dose 1 µM), the “cleaved PARP positive nuclei fraction” value is 82.6%.
With `Cc1cc(Nc2cc(N3CCN(C)CC3)nc(/C=C/c3ccccc3)n2)n[nH]1` + C/C(O)=C(\C#N)C(=O)Nc1cc(Br)ccc1Br [LFM-A13] (first compound 0.04 µM, partner dose 2 µM), the “cleaved PARP positive nuclei fraction” value stood at 76.3%.
The same measure for `N.N.[Cl][Pt][Cl]` [cisplatin] + OCCn1cc(-c2cnc3nnn(Cc4ccc5ncccc5c4)c3n2)cn1 [PF04217903] (first compound 1.6 µM, partner dose 1 µM): 61.9%.
To `Cn1cc(C2=C(c3cn(C4CCN(Cc5ccccn5)CC4)c4ccccc34)C(=O)NC2=O)c2ccccc21` [Enzastaurin] + COc1ccc(COc2ccc(Cc3cnc(N)nc3N)cc2OC)cc1 [GW2580] (first compound 0.8 µM, partner dose 1 µM) belongs 340%.
The same measure for `Cn1cc(C2=C(c3cn(C4CCN(Cc5ccccn5)CC4)c4ccccc34)C(=O)NC2=O)c2ccccc21` [Enzastaurin] + c1cc(-c2cnn3cc(-c4ccc(OCCN5CCCCC5)cc4)cnc23)ccn1 [Dorsomorphin] (first compound 0.8 µM, partner dose 0.4 µM): 112%.
On to `C[As](C)SC[C@H](NC(=O)CC[C@H](N)C(=O)O)C(=O)NCC(=O)O` [Darinaparsin] + C=CCn1c(=O)c2cnc(Nc3ccc(N4CCN(C)CC4)cc3)nc2n1-c1cccc(C(C)(C)O)n1 [MK1775] (first compound 0.4 µM, partner dose 0.02 µM), for which the “cleaved PARP positive nuclei fraction” value came to 145%.
To `Cn1cc(C2=C(c3cn(C4CCN(Cc5ccccn5)CC4)c4ccccc34)C(=O)NC2=O)c2ccccc21` [Enzastaurin] + OCCn1cc(-c2cnc3nnn(Cc4ccc5ncccc5c4)c3n2)cn1 [PF04217903] (first compound 0.8 µM, partner dose 1 µM) belongs 48.9%; to `N.N.[Cl][Pt][Cl]` [cisplatin] + CN(NC(=O)CC(=O)NN(C)C(=S)c1ccccc1)C(=S)c1ccccc1 [STA4783] (first compound 1.6 µM, partner dose 0.006 µM), 68%; to `C=C(c1ccc(C(=O)O)cc1)c1cc2c(cc1C)C(C)(C)CCC2(C)C` [Bexarotene] + O=C(Oc1ccc([N+](=O)[O-])cc1)N1CCC(C(O)(c2ccc3c(c2)OCO3)c2ccc3c(c2)OCO3)CC1 [JZL184] (first compound 2 µM, partner dose 1 µM), 99.6%.
The same measure for `Cn1sc(=O)n(Cc2ccccc2)c1=O` + O=C(Oc1ccc([N+](=O)[O-])cc1)N1CCC(C(O)(c2ccc3c(c2)OCO3)c2ccc3c(c2)OCO3)CC1 [JZL184] (first compound 0.4 µM, partner dose 1 µM): 79.2%; for `C[As](C)SC[C@H](NC(=O)CC[C@H](N)C(=O)O)C(=O)NCC(=O)O` [Darinaparsin] + COc1cc(Nc2ncc(F)c(Nc3ccc4c(n3)NC(=O)C(C)(C)O4)n2)cc(OC)c1OC [Tamatinib] (first compound 0.4 µM, partner dose 0.4 µM): 62.6%; for `CNC(=O)c1cc(Oc2ccc(NC(=O)Nc3ccc(Cl)c(C(F)(F)F)c3)cc2)ccn1` [sorafenib] + Cc1cc(SCc2sc(-c3ccc(C(F)(F)F)c(F)c3)nc2C)ccc1OCC(=O)O [GW0742] (first compound 0.4 µM, partner dose 2 µM): 85.2%.
The same measure for `Cn1cc(C2=C(c3cn(C4CCN(Cc5ccccn5)CC4)c4ccccc34)C(=O)NC2=O)c2ccccc21` [Enzastaurin] + COC(=O)c1sccc1S(=O)(=O)Nc1ccc(Nc2ccccc2)cc1OC [GSK0660] (first compound 0.8 µM, partner dose 1 µM): 80.2%; for `COc1cc([C@@H]2c3cc4c(cc3[C@@H](O[C@@H]3O[C@@H]5CO[C@@H](C)O[C@H]5[C@H](O)[C@H]3O)[C@H]3COC(=O)[C@H]23)OCO4)cc(OC)c1O` [etoposide] + C/C(O)=C(\C#N)C(=O)Nc1cc(Br)ccc1Br [LFM-A13] (first compound 0.02 µM, partner dose 2 µM): 225%; for `Cn1cnc2c(F)c(Nc3ccc(Br)cc3Cl)c(C(=O)NOCCO)cc21` [selumetinib] + O=C(Oc1ccc([N+](=O)[O-])cc1)N1CCC(C(O)(c2ccc3c(c2)OCO3)c2ccc3c(c2)OCO3)CC1 [JZL184] (first compound 0.015 µM, partner dose 1 µM): 83.3%.
Take `Nc1ncn([C@H]2C[C@H](O)[C@@H](CO)O2)c(=O)n1` [decitabine] + O=C(Oc1ccc([N+](=O)[O-])cc1)N1CCC(C(O)(c2ccc3c(c2)OCO3)c2ccc3c(c2)OCO3)CC1 [JZL184] (first compound 0.1 µM, partner dose 1 µM): the “cleaved PARP positive nuclei fraction” value amounted to 84.4%.
For the compound `C[As](C)SC[C@H](NC(=O)CC[C@H](N)C(=O)O)C(=O)NCC(=O)O` [Darinaparsin] + O=C(O)c1ccc(-c2c[nH]c3ncc(-c4ccccc4)cc23)cc1C1CCCC1 [GSK650394] (first compound 0.4 µM, partner dose 0.16 µM), the “cleaved PARP positive nuclei fraction” value came out at 146%.
To `O=C(Nc1cc(C(F)(F)F)cc(C(F)(F)F)c1)c1cc(Cl)ccc1O` + O=C(Oc1ccc([N+](=O)[O-])cc1)N1CCC(C(O)(c2ccc3c(c2)OCO3)c2ccc3c(c2)OCO3)CC1 [JZL184] (first compound 0.016 µM, partner dose 1 µM) belongs 92.2%.
For the compound `Cn1cc(C2=C(c3cn(C4CCN(Cc5ccccn5)CC4)c4ccccc34)C(=O)NC2=O)c2ccccc21` [Enzastaurin] + O=C(Oc1ccc([N+](=O)[O-])cc1)N1CCC(C(O)(c2ccc3c(c2)OCO3)c2ccc3c(c2)OCO3)CC1 [JZL184] (first compound 0.8 µM, partner dose 1 µM), the “cleaved PARP positive nuclei fraction” value was determined as 147%.

The record behind these values is the supplement of paper PMC4604168 (melanoma cell lines).
